Nine targets from the supplement of paper PMC12819154, “High-throughput peptide-centric local stability assay extends protein–ligand identification to membrane proteins, tissues and bacteria” (Nature Structural & Molecular Biology, 2025) can be followed below.

The chains behind the UniProt entries cited, without tags or fusion partners. Where a name states a change or a piece, a line headed by the entry shows the natural chain unless it says otherwise.
UniProt Q68FD5: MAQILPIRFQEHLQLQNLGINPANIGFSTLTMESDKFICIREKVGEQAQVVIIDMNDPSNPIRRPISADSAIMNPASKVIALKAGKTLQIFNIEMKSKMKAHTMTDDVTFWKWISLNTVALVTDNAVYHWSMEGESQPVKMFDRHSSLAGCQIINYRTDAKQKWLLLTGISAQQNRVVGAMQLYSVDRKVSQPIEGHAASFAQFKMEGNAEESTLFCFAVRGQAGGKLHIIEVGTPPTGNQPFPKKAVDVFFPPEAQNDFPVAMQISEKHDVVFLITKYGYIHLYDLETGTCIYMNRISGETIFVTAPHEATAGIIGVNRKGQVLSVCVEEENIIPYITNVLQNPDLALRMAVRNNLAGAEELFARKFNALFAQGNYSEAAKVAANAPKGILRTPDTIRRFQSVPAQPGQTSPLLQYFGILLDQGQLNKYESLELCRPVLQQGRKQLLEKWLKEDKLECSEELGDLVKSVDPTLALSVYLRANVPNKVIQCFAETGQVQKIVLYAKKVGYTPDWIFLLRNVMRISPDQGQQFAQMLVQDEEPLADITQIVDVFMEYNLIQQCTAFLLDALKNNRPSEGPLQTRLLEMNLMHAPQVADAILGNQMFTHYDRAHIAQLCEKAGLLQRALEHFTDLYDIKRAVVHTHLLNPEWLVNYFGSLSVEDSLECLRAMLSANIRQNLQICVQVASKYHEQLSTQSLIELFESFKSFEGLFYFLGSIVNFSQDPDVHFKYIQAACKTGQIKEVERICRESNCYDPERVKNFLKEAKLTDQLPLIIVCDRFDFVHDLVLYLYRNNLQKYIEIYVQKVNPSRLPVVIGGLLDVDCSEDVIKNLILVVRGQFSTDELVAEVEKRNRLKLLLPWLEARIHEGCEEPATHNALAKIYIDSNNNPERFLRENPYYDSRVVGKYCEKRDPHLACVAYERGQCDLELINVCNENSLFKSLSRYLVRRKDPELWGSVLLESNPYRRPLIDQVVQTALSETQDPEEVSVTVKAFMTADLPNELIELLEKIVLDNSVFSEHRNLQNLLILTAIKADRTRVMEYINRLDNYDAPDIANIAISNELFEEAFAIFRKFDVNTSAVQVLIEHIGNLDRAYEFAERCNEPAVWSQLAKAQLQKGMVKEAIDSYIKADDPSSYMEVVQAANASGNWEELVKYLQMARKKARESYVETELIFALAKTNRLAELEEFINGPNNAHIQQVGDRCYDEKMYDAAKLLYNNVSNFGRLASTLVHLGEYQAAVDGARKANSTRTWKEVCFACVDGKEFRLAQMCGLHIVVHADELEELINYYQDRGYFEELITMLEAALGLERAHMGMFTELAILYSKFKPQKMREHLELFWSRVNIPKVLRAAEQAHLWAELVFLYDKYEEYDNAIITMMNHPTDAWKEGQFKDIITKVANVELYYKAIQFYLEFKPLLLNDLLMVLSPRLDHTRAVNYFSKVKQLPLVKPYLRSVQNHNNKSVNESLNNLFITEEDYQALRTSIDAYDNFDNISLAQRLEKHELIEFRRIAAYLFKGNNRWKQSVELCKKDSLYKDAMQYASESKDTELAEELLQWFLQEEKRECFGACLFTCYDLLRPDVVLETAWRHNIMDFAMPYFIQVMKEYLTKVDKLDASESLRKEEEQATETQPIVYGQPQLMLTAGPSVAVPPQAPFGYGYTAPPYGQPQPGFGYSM
UniProt Q69ZC8: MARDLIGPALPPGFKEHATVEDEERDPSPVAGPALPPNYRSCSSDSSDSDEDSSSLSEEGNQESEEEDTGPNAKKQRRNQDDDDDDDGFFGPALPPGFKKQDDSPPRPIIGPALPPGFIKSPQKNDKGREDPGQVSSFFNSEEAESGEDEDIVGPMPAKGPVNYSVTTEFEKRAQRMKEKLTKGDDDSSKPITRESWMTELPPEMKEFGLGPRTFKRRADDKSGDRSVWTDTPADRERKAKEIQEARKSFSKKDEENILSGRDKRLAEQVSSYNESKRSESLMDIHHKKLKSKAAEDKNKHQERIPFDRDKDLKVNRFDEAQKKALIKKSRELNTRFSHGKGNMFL
UniProt Q64700: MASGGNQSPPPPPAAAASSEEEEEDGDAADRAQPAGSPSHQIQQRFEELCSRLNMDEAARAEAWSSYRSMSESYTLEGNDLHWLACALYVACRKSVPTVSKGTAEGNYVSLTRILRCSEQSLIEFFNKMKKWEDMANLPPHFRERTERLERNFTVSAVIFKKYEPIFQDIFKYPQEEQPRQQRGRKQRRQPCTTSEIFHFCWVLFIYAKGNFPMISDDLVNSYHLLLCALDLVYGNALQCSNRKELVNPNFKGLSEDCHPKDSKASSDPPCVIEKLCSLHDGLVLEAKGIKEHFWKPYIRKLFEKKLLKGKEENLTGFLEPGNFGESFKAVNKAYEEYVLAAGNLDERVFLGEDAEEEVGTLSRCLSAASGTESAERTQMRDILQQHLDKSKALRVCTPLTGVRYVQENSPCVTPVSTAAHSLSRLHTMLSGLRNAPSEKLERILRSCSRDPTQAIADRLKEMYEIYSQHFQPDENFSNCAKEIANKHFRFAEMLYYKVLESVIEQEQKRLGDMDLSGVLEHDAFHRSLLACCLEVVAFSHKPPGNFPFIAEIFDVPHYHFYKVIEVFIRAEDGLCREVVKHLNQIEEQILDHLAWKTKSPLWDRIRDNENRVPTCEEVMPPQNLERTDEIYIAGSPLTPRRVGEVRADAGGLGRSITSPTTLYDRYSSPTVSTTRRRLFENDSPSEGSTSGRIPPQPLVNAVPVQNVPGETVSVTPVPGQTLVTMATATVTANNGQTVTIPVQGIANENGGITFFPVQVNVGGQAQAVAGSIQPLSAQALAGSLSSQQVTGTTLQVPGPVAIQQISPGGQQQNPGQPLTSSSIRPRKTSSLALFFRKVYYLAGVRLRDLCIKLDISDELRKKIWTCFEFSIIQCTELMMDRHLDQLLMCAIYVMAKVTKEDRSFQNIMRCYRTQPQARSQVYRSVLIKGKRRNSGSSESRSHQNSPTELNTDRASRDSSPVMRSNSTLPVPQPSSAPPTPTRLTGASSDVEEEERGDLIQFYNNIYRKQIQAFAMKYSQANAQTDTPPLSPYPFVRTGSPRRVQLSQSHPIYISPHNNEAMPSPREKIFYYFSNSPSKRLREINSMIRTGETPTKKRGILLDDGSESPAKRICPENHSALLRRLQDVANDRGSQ
UniProt Q62433: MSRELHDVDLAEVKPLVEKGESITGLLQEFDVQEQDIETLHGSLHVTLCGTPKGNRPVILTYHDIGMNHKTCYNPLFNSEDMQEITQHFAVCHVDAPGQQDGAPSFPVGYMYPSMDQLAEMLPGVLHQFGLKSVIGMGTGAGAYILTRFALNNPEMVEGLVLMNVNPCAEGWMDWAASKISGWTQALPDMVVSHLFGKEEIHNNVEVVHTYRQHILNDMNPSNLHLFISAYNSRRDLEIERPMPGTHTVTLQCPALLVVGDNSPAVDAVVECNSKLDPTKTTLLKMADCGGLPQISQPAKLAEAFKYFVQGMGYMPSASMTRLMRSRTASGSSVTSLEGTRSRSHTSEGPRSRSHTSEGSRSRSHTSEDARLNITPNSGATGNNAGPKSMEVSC
UniProt Q63ZW7: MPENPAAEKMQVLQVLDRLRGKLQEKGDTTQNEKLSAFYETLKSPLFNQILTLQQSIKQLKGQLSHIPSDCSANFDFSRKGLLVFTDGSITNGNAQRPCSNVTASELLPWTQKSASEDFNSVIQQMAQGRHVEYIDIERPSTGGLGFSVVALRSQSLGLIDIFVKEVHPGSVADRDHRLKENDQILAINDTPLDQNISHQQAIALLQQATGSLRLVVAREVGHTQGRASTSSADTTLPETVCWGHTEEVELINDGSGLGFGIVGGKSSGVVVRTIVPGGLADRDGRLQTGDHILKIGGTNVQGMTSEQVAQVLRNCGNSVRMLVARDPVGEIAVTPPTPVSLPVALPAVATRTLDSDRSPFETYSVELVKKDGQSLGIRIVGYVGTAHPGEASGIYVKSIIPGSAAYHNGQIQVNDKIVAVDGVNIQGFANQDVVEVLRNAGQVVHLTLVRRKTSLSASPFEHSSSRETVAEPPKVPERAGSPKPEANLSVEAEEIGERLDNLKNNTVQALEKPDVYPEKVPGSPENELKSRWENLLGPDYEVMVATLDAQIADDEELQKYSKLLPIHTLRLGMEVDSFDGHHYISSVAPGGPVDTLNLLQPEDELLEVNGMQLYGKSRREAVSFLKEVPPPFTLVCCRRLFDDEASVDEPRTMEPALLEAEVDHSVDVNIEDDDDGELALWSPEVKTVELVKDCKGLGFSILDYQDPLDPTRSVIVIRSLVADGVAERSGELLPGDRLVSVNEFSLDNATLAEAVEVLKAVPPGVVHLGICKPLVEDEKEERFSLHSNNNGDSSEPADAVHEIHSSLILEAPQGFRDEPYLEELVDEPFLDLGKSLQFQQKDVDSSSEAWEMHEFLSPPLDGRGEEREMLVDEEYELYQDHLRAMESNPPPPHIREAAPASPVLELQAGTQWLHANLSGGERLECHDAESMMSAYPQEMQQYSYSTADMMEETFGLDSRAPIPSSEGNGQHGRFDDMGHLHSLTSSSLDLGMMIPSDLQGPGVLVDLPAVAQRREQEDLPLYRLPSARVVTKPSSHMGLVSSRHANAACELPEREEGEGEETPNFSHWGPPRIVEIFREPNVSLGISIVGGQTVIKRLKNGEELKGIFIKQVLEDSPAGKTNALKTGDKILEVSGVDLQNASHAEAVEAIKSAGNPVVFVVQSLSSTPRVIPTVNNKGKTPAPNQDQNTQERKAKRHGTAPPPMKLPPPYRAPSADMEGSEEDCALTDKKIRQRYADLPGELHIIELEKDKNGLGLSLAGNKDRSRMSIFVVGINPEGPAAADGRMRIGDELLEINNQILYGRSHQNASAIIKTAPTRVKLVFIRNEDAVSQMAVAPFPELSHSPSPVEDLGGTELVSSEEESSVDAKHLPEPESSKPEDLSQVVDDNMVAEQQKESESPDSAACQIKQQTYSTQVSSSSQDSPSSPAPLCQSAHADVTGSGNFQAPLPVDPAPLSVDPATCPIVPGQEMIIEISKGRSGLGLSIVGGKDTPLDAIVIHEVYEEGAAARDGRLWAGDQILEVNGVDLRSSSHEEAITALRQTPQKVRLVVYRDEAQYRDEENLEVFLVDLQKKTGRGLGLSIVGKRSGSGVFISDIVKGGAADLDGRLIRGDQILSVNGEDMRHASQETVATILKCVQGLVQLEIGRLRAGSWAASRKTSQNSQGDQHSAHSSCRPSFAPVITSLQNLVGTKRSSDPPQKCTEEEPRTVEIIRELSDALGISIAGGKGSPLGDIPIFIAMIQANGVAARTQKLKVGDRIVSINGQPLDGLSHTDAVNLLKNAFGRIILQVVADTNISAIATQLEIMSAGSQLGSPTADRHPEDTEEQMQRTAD
UniProt Q61702: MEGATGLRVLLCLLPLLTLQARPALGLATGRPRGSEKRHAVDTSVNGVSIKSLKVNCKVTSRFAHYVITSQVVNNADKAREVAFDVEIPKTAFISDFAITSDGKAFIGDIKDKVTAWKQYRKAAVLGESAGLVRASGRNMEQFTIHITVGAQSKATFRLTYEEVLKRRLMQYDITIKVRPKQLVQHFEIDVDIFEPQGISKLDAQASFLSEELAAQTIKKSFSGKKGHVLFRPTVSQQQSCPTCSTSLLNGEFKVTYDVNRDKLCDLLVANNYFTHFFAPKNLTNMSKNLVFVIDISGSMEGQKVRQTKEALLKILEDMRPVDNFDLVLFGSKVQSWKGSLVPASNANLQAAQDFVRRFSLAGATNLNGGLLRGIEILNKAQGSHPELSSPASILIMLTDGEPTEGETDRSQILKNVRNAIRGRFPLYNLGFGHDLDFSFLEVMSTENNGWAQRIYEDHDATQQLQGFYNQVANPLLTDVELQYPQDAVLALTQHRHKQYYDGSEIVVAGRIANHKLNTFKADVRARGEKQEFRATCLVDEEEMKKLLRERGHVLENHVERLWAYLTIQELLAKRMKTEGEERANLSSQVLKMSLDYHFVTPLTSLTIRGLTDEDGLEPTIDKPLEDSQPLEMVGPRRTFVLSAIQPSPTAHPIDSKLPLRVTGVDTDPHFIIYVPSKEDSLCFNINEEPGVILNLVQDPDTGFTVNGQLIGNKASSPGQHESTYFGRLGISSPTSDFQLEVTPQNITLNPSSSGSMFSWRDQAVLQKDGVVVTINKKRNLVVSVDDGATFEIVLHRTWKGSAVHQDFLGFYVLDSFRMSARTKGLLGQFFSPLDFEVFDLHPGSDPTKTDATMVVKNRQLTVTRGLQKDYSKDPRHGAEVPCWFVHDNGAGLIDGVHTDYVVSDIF

This is one part of the list. Most values lie at the level of the controls, where differences are scatter.

Compound in the experiment: CN[C@@H]1C[C@H]2O[C@@](C)([C@@H]1OC)n1c3ccccc3c3c4c(c5c6ccccc6n2c5c31)C(=O)NC4 [staurosporine]
Briefly: log2 fold change of tryptic peptide abundance, ligand vs vehicle (limited proteolysis) (log2 ratio); higher = more trypsin-susceptible (destabilized). The conditions noted are these: ligand concentration: 20 uM; sample: mouse liver crude lysate; replicate design: treated separately.
With “UniProt Q61687 (peptide sequence: LTPVSLSNSPIK, peptide start residue: 582)”, the log2 fold change came out at 0.181.

On to “UniProt Q68FD5 (peptide sequence: GQFSTDELVAEVEKR, peptide start residue: 838)”, for which the log2 fold change is -0.237.

On to “UniProt Q69ZC8 (peptide sequence: IPFDRDKDLK, peptide start residue: 305)”, for which the log2 fold change was 0.569.

Take “UniProt Q61398 (peptide sequence: YDSVSVFNGAVSDDSKR, peptide start residue: 214)”: the log2 fold change turned out to be 0.343.

Take “UniProt Q69ZA1 (peptide sequence: SPYSPVLR, peptide start residue: 398)”: the log2 fold change was -0.35.

“UniProt Q64700 (peptide sequence: NFTVSAVIFK, peptide start residue: 152)”: the log2 fold change was -0.33.

Consider “UniProt Q62433 (peptide sequence: EEIHNNVEVVHTYR, peptide start residue: 199)”, for which the log2 fold change is -0.177.

In the case of “UniProt Q63ZW7 (peptide sequence: LQTGDHILK, peptide start residue: 287)”, the log2 fold change is 0.352.

For “UniProt Q61702 (peptide sequence: HAVDTSVNGVSIK, peptide start residue: 39)”, the log2 fold change is -0.708.
